Results reported in paper PMC4480970.
No constants are given. Whether binding was seen depends on the method and setting. In cells and extracts the contact can be indirect. Binding calls can cover weak binding; strength is not graded here.

Protein sequences, listed by entry. Tags and fused reporters are not part of them. Lines headed by an entry give the natural chain unless they say otherwise; changes in a name come on top.
UniProt P70288: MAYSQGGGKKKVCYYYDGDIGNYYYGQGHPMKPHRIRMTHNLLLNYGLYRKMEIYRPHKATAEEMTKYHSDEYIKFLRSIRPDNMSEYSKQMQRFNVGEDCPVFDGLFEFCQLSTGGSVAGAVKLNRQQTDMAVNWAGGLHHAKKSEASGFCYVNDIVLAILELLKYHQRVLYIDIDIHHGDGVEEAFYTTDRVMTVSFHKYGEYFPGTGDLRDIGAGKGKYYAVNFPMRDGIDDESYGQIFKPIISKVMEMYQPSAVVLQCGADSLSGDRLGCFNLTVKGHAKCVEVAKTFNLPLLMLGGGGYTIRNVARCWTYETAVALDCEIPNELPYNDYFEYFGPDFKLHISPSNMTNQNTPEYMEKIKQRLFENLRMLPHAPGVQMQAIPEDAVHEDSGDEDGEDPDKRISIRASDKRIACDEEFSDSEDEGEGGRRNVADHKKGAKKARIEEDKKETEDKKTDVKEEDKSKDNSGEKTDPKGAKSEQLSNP
UniProt O88895: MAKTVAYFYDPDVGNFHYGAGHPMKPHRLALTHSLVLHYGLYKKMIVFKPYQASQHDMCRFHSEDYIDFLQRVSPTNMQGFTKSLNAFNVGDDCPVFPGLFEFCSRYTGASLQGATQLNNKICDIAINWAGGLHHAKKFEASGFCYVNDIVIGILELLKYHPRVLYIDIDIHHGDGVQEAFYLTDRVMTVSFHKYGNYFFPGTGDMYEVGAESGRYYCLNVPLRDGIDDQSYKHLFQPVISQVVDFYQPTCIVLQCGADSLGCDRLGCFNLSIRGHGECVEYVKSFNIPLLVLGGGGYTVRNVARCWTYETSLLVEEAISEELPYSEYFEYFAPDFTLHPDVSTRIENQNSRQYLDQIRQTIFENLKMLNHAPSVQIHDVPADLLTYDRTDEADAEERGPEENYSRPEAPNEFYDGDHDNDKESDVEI
UniProt O09106: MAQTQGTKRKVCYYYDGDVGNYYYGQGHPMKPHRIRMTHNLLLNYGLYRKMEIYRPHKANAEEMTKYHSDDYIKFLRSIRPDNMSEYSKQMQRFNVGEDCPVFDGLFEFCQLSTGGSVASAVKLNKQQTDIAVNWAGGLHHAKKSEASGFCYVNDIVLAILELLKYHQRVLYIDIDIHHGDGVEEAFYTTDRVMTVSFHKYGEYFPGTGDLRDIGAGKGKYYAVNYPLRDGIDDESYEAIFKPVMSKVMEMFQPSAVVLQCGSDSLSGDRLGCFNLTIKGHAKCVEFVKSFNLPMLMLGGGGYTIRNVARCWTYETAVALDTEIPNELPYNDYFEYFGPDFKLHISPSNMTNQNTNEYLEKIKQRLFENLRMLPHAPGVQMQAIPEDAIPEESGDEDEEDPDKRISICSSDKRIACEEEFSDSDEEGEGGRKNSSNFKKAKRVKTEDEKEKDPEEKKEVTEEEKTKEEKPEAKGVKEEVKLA
UniProt Q99JB6: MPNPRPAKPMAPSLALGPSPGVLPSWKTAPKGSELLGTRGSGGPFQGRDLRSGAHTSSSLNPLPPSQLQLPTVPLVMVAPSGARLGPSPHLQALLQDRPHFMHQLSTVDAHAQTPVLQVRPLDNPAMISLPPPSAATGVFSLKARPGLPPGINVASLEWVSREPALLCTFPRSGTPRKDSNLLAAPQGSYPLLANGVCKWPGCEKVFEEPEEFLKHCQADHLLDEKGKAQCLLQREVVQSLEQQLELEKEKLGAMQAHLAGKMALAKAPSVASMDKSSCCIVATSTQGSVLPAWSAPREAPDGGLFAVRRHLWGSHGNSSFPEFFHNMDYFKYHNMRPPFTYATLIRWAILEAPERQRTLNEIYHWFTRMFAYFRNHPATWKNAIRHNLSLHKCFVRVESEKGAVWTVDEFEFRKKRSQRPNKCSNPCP

What was measured:
Experiment in all cases: co-IP; HA-Foxp3 or its deletion mutants and FLAG-HDAC1, 2 or 3 co-transfected in HEK293T; lysis in 0.4 M NaCl, 1% Triton X-100, diluted with hypotonic buffer; immunoprecipitation with anti-FLAG M2 agarose, 2 h at 4°C, washes with 0.5 M NaCl; blot with anti-HA
FLAG-tagged HDAC2 = FLAG-tagged HDAC2 (UniProt P70288)
FLAG-tagged HDAC3 = FLAG-tagged HDAC3 (UniProt O88895)
FLAG-tagged HDAC1 = FLAG-tagged HDAC1 (UniProt O09106)

- binding (FLAG-tagged HDAC2): binds
- binding (FLAG-tagged HDAC3): binds
- binding (FLAG-tagged HDAC1): binds
Substance: HA-tagged Foxp3 with exon 3 alone deleted (from UniProt Q99JB6)
